Some of these results come from one statement about several compounds together. At least one compound was matched to its structure with a doubt left.
Conditions: difference between melting and degradation temperatures, STA under nitrogen flow; listed as LNG-B

Compound: C#C[C@]1(OC(=O)CCC)CC[C@H]2[C@@H]3CCC4=CC(=O)CC[C@@H]4[C@H]3CC[C@@]21CC [Levonorgestrel Butanoate]
- Window [Tdegradeable − Tmelt]: > 20 °C

Source: US20260191783A1, “DRUG DELIVERY FORMULATIONS” (The Regents of the University of California, priority 2018, published 2026)
